Data as given in PubChem BioAssay AID1159578 (Peter MacCallum Cancer Centre, 2015)
Screen: 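Genome-wide hunt for genes controlling movement of lymphatic endothelial cells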 (primary screen). Cell system: human lymphatic endothelial cells. Reagent: siRNA pool against human genes, 40 nM. Time to read-out: 48 h after transfection. Measurement: 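High-content imaging of dye-stained cells in a scratch assay measures filled wound area and nuclei per well; duplicate means given as ratio to mock and robust z-score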. Direction: migration robust z-score: higher = faster migration into the scratch; nuclei per well: higher = more cells in the well. Call rule: 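Pools averaging fewer than 3300 nuclei are never called; remaining pools count as changed when migration robust z lies outside -2 to 2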. Calls: active = migration changed; inactive = no migration change, or too few cells.
This is an unselected part of about 18,000 deposited reagents. Of all reagents, about 1,030 (5.7%) were called active. 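Inactive calls also include pools with fewer than 3300 nuclei, whose migration was not assessed.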 Raw values are not corrected between plates. Not all columns of the deposit are shown. No sequences are given here.

| target | migration robust z-score | nuclei per well, duplicate mean | outcome |
| --- | --- | --- | --- |
| TAF15 (GeneID 8148) | 0.24 | 5448 | inactive |
| RESF1 (GeneID 55196) | 0.5 | 6521 | inactive |
| KRT8 (GeneID 3856) | 0.34 | 6142 | inactive |
| C2CD2 (GeneID 25966) | -0.82 | 5868 | inactive |
| TMEM86B (GeneID 255043) | -1.24 | 3898 | inactive |
| ARHGEF5 (GeneID 7984) | 1.05 | 5696 | inactive |
| LDHAL6B (GeneID 92483) | 1.04 | 4742 | inactive |
| AICDA (GeneID 57379) | -0.88 | 5549 | inactive |
| FASTKD5 (GeneID 60493) | -0.26 | 5918 | inactive |
| LPIN1 (GeneID 23175) | 0.76 | 5186 | inactive |
| CAPN7 (GeneID 23473) | 0.78 | 6378 | inactive |
| MAB21L3 (GeneID 126868) | 0.16 | 4708 | inactive |
| CIMAP1A (GeneID 113746) | 0.6 | 5973 | inactive |
| RINT1 (GeneID 60561) | 0.84 | 5381 | inactive |
| TRPC1 (GeneID 7220) | -0.36 | 4666 | inactive |
| GNG8 (GeneID 94235) | -2.4 | 2555 | inactive |
| MOGAT3 (GeneID 346606) | 0.57 | 5448 | inactive |
| SLC39A10 (GeneID 57181) | -1.96 | 4490 | inactive |
| TMEM108 (GeneID 66000) | 1.25 | 4678 | inactive |
| PIGT (GeneID 51604) | -0.08 | 5558 | inactive |
| PMAIP1 (GeneID 5366) | -1 | 4738 | inactive |
| ENG (GeneID 2022) | 1.21 | 5641 | inactive |
| AHR (GeneID 196) | 0.31 | 6545 | inactive |
| FOXK1 (GeneID 221937) | 0.14 | 5843 | inactive |
| PRG2 (GeneID 5553) | 0.13 | 5014 | inactive |
| CYP2E1 (GeneID 1571) | 0.29 | 7412 | inactive |
| COX15 (GeneID 1355) | -0.26 | 5115 | inactive |
| MAP7D2 (GeneID 256714) | 0.31 | 6044 | inactive |
| FCGRT (GeneID 2217) | 1.04 | 7134 | inactive |
| BRICD5 (GeneID 283870) | -2.23 | 6194 | active |
| MON2 (GeneID 23041) | -0.68 | 6320 | inactive |
| SLC6A7 (GeneID 6534) | 0.5 | 5374 | inactive |
| PCARE (GeneID 388939) | 0.25 | 5185 | inactive |
| GPR132 (GeneID 29933) | -2.44 | 3172 | inactive |
| RPS23 (GeneID 6228) | -2.28 | 4530 | active |
| LTBP4 (GeneID 8425) | 0.36 | 5451 | inactive |
| ABCB5 (GeneID 340273) | 0.55 | 5396 | inactive |
| SMYD5 (GeneID 10322) | 0.16 | 6971 | inactive |
| RAB1A (GeneID 5861) | 0.08 | 4598 | inactive |

Records above whose gene name starts with A or a (4):
| target | migration robust z-score | nuclei per well, duplicate mean | outcome |
| --- | --- | --- | --- |
| ARHGEF5 (GeneID 7984) | 1.05 | 5696 | inactive |
| AICDA (GeneID 57379) | -0.88 | 5549 | inactive |
| AHR (GeneID 196) | 0.31 | 6545 | inactive |
| ABCB5 (GeneID 340273) | 0.55 | 5396 | inactive |
